The values that follow come from article PMC5513536.

Chains of the proteins cited; added tags and fusions are not shown.
UniProt F5HID2: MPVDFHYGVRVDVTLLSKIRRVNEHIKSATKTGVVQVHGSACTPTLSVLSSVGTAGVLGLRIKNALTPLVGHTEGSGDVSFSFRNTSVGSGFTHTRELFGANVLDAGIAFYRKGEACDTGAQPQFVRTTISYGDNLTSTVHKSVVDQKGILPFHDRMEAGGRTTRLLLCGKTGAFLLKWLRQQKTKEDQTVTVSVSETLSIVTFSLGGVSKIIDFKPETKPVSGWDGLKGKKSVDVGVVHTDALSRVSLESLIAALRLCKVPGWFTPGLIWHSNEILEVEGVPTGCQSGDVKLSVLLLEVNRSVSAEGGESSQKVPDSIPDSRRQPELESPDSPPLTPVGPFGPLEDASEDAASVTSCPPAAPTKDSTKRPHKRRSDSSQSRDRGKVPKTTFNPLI

Results are given in words; binding and its absence hold for the method and conditions named. Binding seen in cells or lysates may run through a third protein. A yes stands for co-enrichment or nearness to the bait. Other partners may have been found.

This test concerns the target Flag-epitope tagged ORF59 (BAC16-ORF59Flag) (KSHV (human herpesvirus 8)) (UniProt F5HID2). Nature of the test: affinity purification with mass spectrometry.

B1: Isoform 3 of General transcription factor II-I (protein, UniProt P78347-3 1-978)
chain: MAQVAMSTLPVEDEESSESRMVVTFLMSALESMCKELAKSKAEVACIAVYETDVFVVGTERGRAFVNTRKDFQKDFVKYCVEEEEKAAEMHKMKSTTQANRMSVDAVEIETLRKTVEDYFCFCYGKALGKSTVVPVPYEKMLRDQSAVVVQGLPEGVAFKHPENYDLATLKWILENKAGISFIIKRPFLEPKKHVGGRVMVTDADRSILSPGGSCGPIKVKTEPTEDSGISLEMAAVTVKEESEDPDYYQYNIQGSHHSSEGNEGTEMEVPAEDSTQHVPSETSEDPEVEVTIEDDDYSPPSKRPKANELPQPPVPEPANAGKRKVREFNFEKWNARITDLRKQVEELFERKYAQAIKAKGPVTIPYPLFQSHVEDLYVEGLPEGIPFRRPSTYGIPRLERILLAKERIRFVIKKHELLNSTREDLQLDKPASGVKEEWYARITKLRKMVDQLFCKKFAEALGSTEAKAVPYQKFEAHPNDLYVEGLPENIPFRSPSWYGIPRLEKIIQVGNRIKFVIKRPELLTHSTTEVTQPRTNTPVKEDWNVRITKLRKQVEEIFNLKFAQALGLTEAVKVPYPVFESNPEFLYVEGLPEGIPFRSPTWFGIPRLERIVRGSNKIKFVVKKPELVISYLPPGMASKINTKALQSPKRPRSPGSNSKVPEIEVTVEGPNNNNPQTSAVRTPTQTNGSNVPFKPRGREFSFEAWNAKITDLKQKVENLFNEKCGEALGLKQAVKVPFALFESFPEDFYVEGLPEGVPFRRPSTFGIPRLEKILRNKAKIKFIIKKPEMFETAIKESTSSKSPPRKINSSPNVNTTASGVEDLNIIQVTIPDDDNERLSKVEKARQLREQVNDLFSRKFGEAIGMGFPVKVPYRKITINPGCVVVDGMPPGVSFKAPSYLEISSMRRILDSAEFIKFTVIRPFPGLVINNQLVDQSESEGPVIQESAEPSQLEVPATEEIKETDGSSQIKQEPDPTW
Turning to B1, the binding entry is on record as “binds”.

B2: Isoform 5 of Double-stranded RNA-specific adensodine deaminase (protein, UniProt P55265-5 1-931)
chain: MAEIKEKICDYLFNVSDSSALNLAKNIGLTKARDINAVLIDMERQGDVYRQGTTPPIWHLTDKKRERMQIKRNTNSVPETAPAAIPETKRNAEFLTCNIPTSNASNNMVTTEKVENGQEPVIKLENRQEARPEPARLKPPVHYNGPSKAGYVDFENGQWATDDIPDDLNSIRAAPGEFRAIMEMPSFYSHGLPRCSPYKKLTECQLKNPISGLLEYAQFASQTCEFNMIEQSGPPHEPRFKFQVVINGREFPPAEAGSKKVAKQDAAMKAMTILLEEAKAKDSGKSEESSHYSTEKESEKTAESQTPTPSATSFFSGKSPVTTLLECMHKLGNSCEFRLLSKEGPAHEPKFQYCVAVGAQTFPSVSAPSKKVAKQMAAEEAMKALHGEATNSMASDNQPEGMISESLDNLESMMPNKVRKIGELVRYLNTNPVGGLLEYARSHGFAAEFKLVDQSGPPHEPKFVYQAKVGGRWFPAVCAHSKKQGKQEAADAALRVLIGENEKAERMGFTEVTPVTGASLRRTMLLLSRSPEAQPKTLPLTGSTFHDQIAMLSHRCFNTLTNSFQPSLLGRKILAAIIMKKDSEDMGVVVSLGTGNRCVKGDSLSLKGETVNDCHAEIISRRGFIRFLYSELMKYNSQTAKDSIFEPAKGGEKLQIKKTVSFHLYISTAPCGDGALFDKSCSDRAMESTESRHYPVFENPKQGKLRTKVENGEGTIPVESSDIVPTWDGIRLGERLRTMSCSDKILRWNVLGLQGALLTHFLQPIYLKSVTLGYLFSQGHLTRAICCRVTRDGSAFEDGLRHPFIVNHPKVGRVSIYDSKRQSGKTKETSVNWCLADGYDLEILDGTRGTVDGPRNELSRVSKKNIFLLFKKLCSFRYRRDLLRLSYGEAKKAARDYETAKNYFKKGLKDMGYGNWISKPQEEKNFYLCPV
On to B2, for which the binding result is “binds”.

B3: Transformer-2 protein homolog (protein, UniProt P62995 1-288)
chain: MSDSGEQNYGERESRSASRSGSAHGSGKSARHTPARSRSKEDSRRSRSKSRSRSESRSRSRRSSRRHYTRSRSRSRSHRRSRSRSYSRDYRRRHSHSHSPMSTRRRHVGNRANPDPNCCLGVFGLSLYTTERDLREVFSKYGPIADVSIVYDQQSRRSRGFAFVYFENVDDAKEAKERANGMELDGRRIRVDFSITKRPHTPTPGIYMGRPTYGSSRRRDYYDRGYDRGYDDRDYYSRSYRGGGGGGGGWRAAQDRDQIYRRRSPSPYYSRGGYRSRSRSRSYSPRRY
As to B3, the binding result is “binds”.

B4: Apoptotic chromatin dondensation inducer in the nucleus (protein, UniProt Q9UKV3 1-1341)
chain: MWRRKHPRTSGGTRGVLSGNRGVEYGSGRGHLGTFEGRWRKLPKMPEAVGTDPSTSRKMAELEEVTLDGKPLQALRVTDLKAALEQRGLAKSGQKSALVKRLKGALMLENLQKHSTPHAAFQPNSQIGEEMSQNSFIKQYLEKQQELLRQRLEREAREAAELEEASAESEDEMIHPEGVASLLPPDFQSSLERPELELSRHSPRKSSSISEEKGDSDDEKPRKGERRSSRVRQARAAKLSEGSQPAEEEEDQETPSRNLRVRADRNLKTEEEEEEEEEEEEDDEEEEGDDEGQKSREAPILKEFKEEGEEIPRVKPEEMMDERPKTRSQEQEVLERGGRFTRSQEEARKSHLARQQQEKEMKTTSPLEEEEREIKSSQGLKEKSKSPSPPRLTEDRKKASLVALPEQTASEEETPPPLLTKEASSPPPHPQLHSEEEIEPMEGPAPAVLIQLSPPNTDADTRELLVSQHTVQLVGGLSPLSSPSDTKAESPAEKVPEESVLPLVQKSTLADYSAQKDLEPESDRSAQPLPLKIEELALAKGITEECLKQPSLEQKEGRRASHTLLPSHRLKQSADSSSSRSSSSSSSSSRSRSRSPDSSGSRSHSPLRSKQRDVAQARTHANPRGRPKMGSRSTSESRSRSRSRSRSASSNSRKSLSPGVSRDSSTSYTETKDPSSGQEVATPPVPQLQVCEPKERTSTSSSSVQARRLSQPESAEKHVTQRLQPERGSPKKCEAEEAEPPAATQPQTSETQTSHLPESERIHHTVEEKEEVTMDTSENRPENDVPEPPMPIADQVSNDDRPEGSVEDEEKKESSLPKSFKRKISVVSATKGVPAGNSDTEGGQPGRKRRWGASTATTQKKPSISITTESLKSLIPDIKPLAGQEAVVDLHADDSRISEDETERNGDDGTHDKGLKICRTVTQVVPAEGQENGQREEEEEEKEPEAEPPVPPQVSVEVALPPPAEHEVKKVTLGDTLTRRSISQQKSGVSITIDDPVRTAQVPSPPRGKISNIVHISNLVRPFTLGQLKELLGRTGTLVEEAFWIDKIKSHCFVTYSTVEEAVATRTALHGVKWPQSNPKFLCADYAEQDELDYHRGLLVDRPSETKTEEQGIPRPLHPPPPPPVQPPQHPRAEQREQERAVREQWAEREREMERRERTRSEREWDRDKVREGPRSRSRSRDRRRKERAKSKEKKSEKKEKAQEEPPAKLLDDLFRKTKAAPCIYWLPLTDSQIVQKEAERAERAKEREKRRKEQEEEEQKEREKEAERERNRQLEREKRREHSRERDRERERERERDRGDRDRDRERDRERGRERDRRDTKRHSRSRSRSTPVRDRGGRR
Take B4: the binding entry is on record as “binds”.
